{
  "source": "patent US20240092814A1",
  "about": "“WATER-SOLUBLE Pd(II) COMPLEX, METHOD FOR SYNTHESIZING SAME, AND USE THEREOF AS [sequence] PRECURSOR” (priority 2022, published 2024)",
  "note": "Like-named read-outs stand apart in the source and are kept apart here.",
  "data": [
    {"molecule": "O=C1[O][Pd]([N+](=O)[O-])([N+](=O)[O-])[O]C1=O", "note": "[Pd-X6, ammonium dinitrooxalato palladium(II)]", "values": [
      {"measurement": "Conversion rate of Propane", "setting": "350 ° C., water content 0%", "value": 100, "unit": "%"},
      {"measurement": "Conversion rate of Propane", "setting": "350 ° C., water content 5%", "value": 97.8, "unit": "%"},
      {"measurement": "Conversion rate of Propane", "setting": "350 ° C., water content 10%", "value": 94.9, "unit": "%"},
      {"measurement": "Conversion rate of Propane", "setting": "350 ° C., water content 15%", "value": 91.2, "unit": "%"},
      {"measurement": "Conversion rate of Propane", "setting": "350 ° C., water content 20%", "value": 87.5, "unit": "%"},
      {"measurement": "Conversion rate of Propane", "setting": "400 ° C., water content 0%", "value": 100, "unit": "%"},
      {"measurement": "Conversion rate of Propane", "setting": "400 ° C., water content 5%", "value": 100, "unit": "%"},
      {"measurement": "Conversion rate of Propane", "setting": "400 ° C., water content 10%", "value": 99.6, "unit": "%"},
      {"measurement": "Conversion rate of Propane", "setting": "400 ° C., water content 15%", "value": 99, "unit": "%"},
      {"measurement": "Conversion rate of Propane", "setting": "400 ° C., water content 20%", "value": 100, "unit": "%"},
      {"measurement": "Conversion rate of Propane", "setting": "450 ° C., water content 0%", "value": 100, "unit": "%"},
      {"measurement": "Conversion rate of Propane", "setting": "450 ° C., water content 5%", "value": 100, "unit": "%"},
      {"measurement": "Conversion rate of Propane", "setting": "450 ° C., water content 10%", "value": 100, "unit": "%"},
      {"measurement": "Conversion rate of Propane", "setting": "450 ° C., water content 15%", "value": 100, "unit": "%"},
      {"measurement": "Conversion rate of Propane", "setting": "450 ° C., water content 20%", "value": 100, "unit": "%"},
      {"measurement": "Conversion rate of Propane", "setting": "500 ° C., water content 0%", "value": 100, "unit": "%"},
      {"measurement": "Conversion rate of Propane", "setting": "500 ° C., water content 5%", "value": 100, "unit": "%"},
      {"measurement": "Conversion rate of Propane", "setting": "500 ° C., water content 10%", "value": 100, "unit": "%"},
      {"measurement": "Conversion rate of Propane", "setting": "500 ° C., water content 15%", "value": 100, "unit": "%"},
      {"measurement": "Conversion rate of Propane", "setting": "500 ° C., water content 20%", "value": 100, "unit": "%"}
    ]}
  ]
}
